Screen size: about 360,000 compounds; about 10,000 (2.8%) were called active. The inconclusive results got no clear call from the source; some entries with a clear call stand among them for comparison. Calls come from the whole dose curve; as a rule, active = well fitted inhibition curve with a large enough effect; inconclusive = small, poorly fitted or top-dose-only effect; inactive = flat fitted curve, though single readings scatter. A potency beside an inconclusive call is a rough fit, not a confirmed value.
Each compound was assayed against Serine/threonine-protein kinase PLK1 (Homo sapiens) (UniProt P53350) (assay: qHTS for Inhibitors of PLK1-PDB (polo-like kinase 1 - polo-box domain): Primary Screen). Conditions: Plk1 PBD binding of FITC phosphopeptide, fluorescence polarization.
% is set by controls: 0 for no effect and ±100 for the full control effect; potency is the fitted concentration of half-maximal effect.
Note: nearly all actives have a fitted effect of over 65% in size.
Throughout, for max response, negative = inhibition: series mostly up to about 57 µM.

The chains behind the UniProt entries cited, without tags or fusion partners.
UniProt P53350, whole entry, looked up: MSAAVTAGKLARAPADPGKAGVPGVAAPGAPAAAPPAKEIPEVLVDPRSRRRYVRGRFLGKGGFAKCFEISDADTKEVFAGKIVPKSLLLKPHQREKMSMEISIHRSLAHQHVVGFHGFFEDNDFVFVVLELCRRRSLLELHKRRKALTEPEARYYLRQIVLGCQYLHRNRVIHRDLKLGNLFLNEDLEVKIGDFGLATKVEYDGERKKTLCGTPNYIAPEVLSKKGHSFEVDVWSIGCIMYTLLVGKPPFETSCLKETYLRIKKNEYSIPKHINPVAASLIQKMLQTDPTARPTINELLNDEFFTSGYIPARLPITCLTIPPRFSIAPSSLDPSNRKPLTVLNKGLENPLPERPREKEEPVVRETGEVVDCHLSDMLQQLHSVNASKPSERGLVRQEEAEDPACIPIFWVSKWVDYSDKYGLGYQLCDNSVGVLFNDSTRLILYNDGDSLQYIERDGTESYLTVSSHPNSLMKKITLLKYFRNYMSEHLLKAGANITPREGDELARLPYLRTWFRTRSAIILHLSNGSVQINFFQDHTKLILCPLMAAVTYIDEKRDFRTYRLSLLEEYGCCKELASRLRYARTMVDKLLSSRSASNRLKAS

Compound | Potency | max response, negative = inhibition
COc1cc(OC)c([N+](=O)[O-])cc1/C=N/NC(=O)c1ccncc1 | inconclusive: 26.7 µM [inhibitor, single point] | 
COc1ccc(C2CC(c3cccs3)=NN2C(=O)CSc2nc3c(cnn3-c3ccccc3)c(=O)[nH]2)cc1 (stereo not drawn) | inconclusive: 33.6 µM [inhibitor, single point] | 
FC(F)(F)c1ccc2c(c1)N1CCCC1CN2 (stereo not drawn) | active: 26.7 µM | 
C=CCn1c(NC(C)c2cc(Cl)ccc2O)nc2ccccc21 (stereo not drawn) |  | inactive: -1.75%
COc1ccc(C(CC(=O)N2CCCC2)c2c(OC)cc(OC)c3c(-c4ccccc4)cc(=O)oc23)cc1 (stereo not drawn) | inconclusive: 21.2 µM [inhibitor, partial curve] | 
COc1ccc(CN(C)Cc2c(O)ccc3cc(Br)ccc23)cc1OC | inconclusive: 5.32 µM [inhibitor, full curve] | 
CN(Cc1nc(-c2ccncc2)no1)S(=O)(=O)c1ccccc1 | inconclusive: 21.2 µM [inhibitor, single point] | 
Cc1cc(C(c2cc(C)c(N)c(C)c2)c2ccco2)cc(C)c1N |  | inactive: -26.6%
COc1ccc(NC(=O)C2=Cc3ccccc3OC2)cc1 | inconclusive: 26.7 µM [inhibitor, single point] | 
O=C(C1CC1)N(Cc1nc2ccccc2c(=O)[nH]1)Cc1cccs1 | active: 15 µM | 
N#CC1=C(c2ccc(-c3ccccc3)cc2)COC1=O | inconclusive: 21.2 µM [inhibitor, partial curve] | 
Cc1ccc(-c2nnc3ccc(SC(C)C(=O)O)nn23)cc1 (stereo not drawn) | inconclusive: 26.7 µM [inhibitor, partial curve] | 
Cc1ccc2c(c1)cc(CN(C(=O)N1CCOCC1)C1CCCC1)c1nnnn12 | inconclusive: 37.7 µM [inhibitor, single point] | 
O=c1nc(SCc2ccccc2Cl)nc(-c2ccc(Cl)cc2)[nH]1 | inconclusive: 33.6 µM [inhibitor, single point] | 
Cc1ccc(CN2C(=O)C(Cc3ccccc3)Nc3ncnc(N4CCN(c5ccccc5)CC4)c32)cc1 (stereo not drawn) |  | inactive: -2.2%
CCCCOc1cccc(C(=O)Nc2ccc(S(=O)(=O)Nc3nnc(CC)s3)cc2)c1 | inconclusive: 33.6 µM [inhibitor, single point] | 
COc1ccccc1-c1nnc2sc(-c3cnccn3)nn12 | inconclusive: 29.9 µM [inhibitor, partial curve] | 
C1CN=C(NC23CC4CC(CC(C4)C2)C3)C1 | active: 29.9 µM | 
Cc1ccc(S(=O)(=O)N2CCN(CC(=O)N/N=C/C=C/c3ccccc3)CC2)cc1 |  | inactive: 2.9%
CC1CN2C(c3ccc(Cl)cc3)=CSC2=N1 (stereo not drawn) |  | inactive: -25.8%
CC1(C)Cc2c(C#N)c(NCCc3ccccc3)nc(-c3ccco3)c2CO1 | inconclusive: 26.7 µM [inhibitor, single point] | 
Cc1noc(C)c1C(=O)NCCc1ccc(Cl)cc1 | inconclusive: 29.9 µM [inhibitor, single point] | 
COc1ccc(-c2nc(CSCC(=O)NCCCN3CCCC3=O)c(C)o2)cc1OC | active: 21.2 µM | 

Compound | Potency | max response, negative = inhibition
CCOc1ccccc1NC(=O)c1c(NC(=O)CCC(=O)O)sc2c1CCCCC2 | inconclusive: 26.7 µM [inhibitor, partial curve] | 
N=C1C2=C3Sc4ccccc4N3CCCC2=NN1c1cccc(S(=O)(=O)O)c1 | inconclusive: 13.4 µM [inhibitor, partial curve] | 
COc1cc(/C=C2/CC/C(=C/c3ccc(O)c(OC)c3)C2=O)ccc1O | inconclusive: 8.44 µM [inhibitor, single point] | 
CCCn1c(CNC(=O)c2ccccc2)nc2ccccc21 |  | inactive: -1.77%
CCOc1ccc(C2OC34CCCCC3C(C#N)(C#N)C2(C#N)C(=N)O4)cc1OC (stereo not drawn) | inconclusive: 21.2 µM [inhibitor, single point] | 
Cc1c(CNCCc2ccccc2Cl)c(C(=O)O)c(C)n1-c1ccccc1 | inconclusive: 21.2 µM [inhibitor, partial curve] | 
O=C(CSC1=Nc2ccccc2C2CC=NN12)Nc1ccc(F)c(F)c1F (stereo not drawn) | inconclusive: 26.7 µM [inhibitor, partial curve] | 
CCN(CC)S(=O)(=O)c1ccc(N2CCOCC2)c(NC(=O)c2c3c(nc4ccccc24)CCC3)c1 |  | inactive: -18.3%
COc1ccc(-n2c(-c3cccc(C)c3[N+](=O)[O-])n[nH]c2=S)cc1 | inconclusive: 26.7 µM [inhibitor, single point] | 
Cc1cc(SCC(=O)N2c3ccccc3NC(=O)CC2C)nc2ccccc12 (stereo not drawn) | inconclusive: 29.9 µM [inhibitor, partial curve] | 
C=CCNc1n[nH]c(=S)s1 | inconclusive: 21.2 µM [inhibitor, single point] | 
CCc1ccc(-n2c(SCc3cc(=O)n4cc(Br)ccc4n3)nc3[nH]ncc3c2=O)cc1 | inconclusive: 26.7 µM [inhibitor, partial curve] | 
O=C1Nc2ccc(Br)cc2C1=Nc1cccnc1 | inconclusive: 26.7 µM [inhibitor, single point] | 
CCOC(=O)C1(C)CCCN(C(=O)C(c2ccccc2)c2ccccc2)C1 (stereo not drawn) |  | inactive: -9.23%
O=C(N=C1c2ccccc2CN1c1ccc(F)c(F)c1)c1cccnc1 |  | inactive: -8.07%
Cc1ccc(OCCN(C)C(=O)C2CCC(=O)N(CCCN3CCOCC3)C2)cc1 (stereo not drawn) |  | inactive: -20.6%
Cc1ccc(NC(=O)c2cccc(C(F)(F)F)c2)cc1NC(=O)c1[nH]cnc1C(N)=O |  | inactive: -2.6%
Cc1cccc(C)c1OCCCn1ccnc1 |  | inactive: -7.29%
COc1cccc(-c2cnc3c(NC(C)=O)cc(-c4cccc(C(=O)NCCN(C)C)c4)cn23)c1 |  | inactive: 3.02%
CCCC[C@@H]1C=C(C(=O)O)[C@H](c2ccc(Br)cc2)N1S(=O)(=O)c1ccc(C)cc1 | inconclusive: 26.7 µM [inhibitor, partial curve] | 
CCOC(=O)C1=C(C)N=c2s/c(=C/c3ccc(OCC(=O)O)cc3)c(=O)n2C1c1ccc(F)cc1 (stereo not drawn) | inconclusive: 29.9 µM [inhibitor, single point] | 
COCCSc1nnc(NS(=O)(=O)c2ccc(F)cc2)s1 | inconclusive: 26.7 µM [inhibitor, partial curve] | 
Nc1ncnc2nc(Sc3ccc(Cl)cc3)[nH]c12 | inconclusive: 15 µM [inhibitor, partial curve] | 

Compounds above that contain a thiophene ring, fused or not, in the order listed:
Compound | Potency | max response, negative = inhibition
COc1ccc(C2CC(c3cccs3)=NN2C(=O)CSc2nc3c(cnn3-c3ccccc3)c(=O)[nH]2)cc1 (stereo not drawn) | inconclusive: 33.6 µM [inhibitor, single point] | 
O=C(C1CC1)N(Cc1nc2ccccc2c(=O)[nH]1)Cc1cccs1 | active: 15 µM | 
CCOc1ccccc1NC(=O)c1c(NC(=O)CCC(=O)O)sc2c1CCCCC2 | inconclusive: 26.7 µM [inhibitor, partial curve] | 

(more compounds)

Compound | Potency | max response, negative = inhibition
Cc1cc(C2=NNC(=NC3CC3)SC2)c(C)n1Cc1ccco1 | inconclusive: 16.8 µM [inhibitor, partial curve] | 
COc1ccc(Cn2nnnc2CN2CCN(c3ccc(OC)cc3)CC2)cc1 | inconclusive: 21.2 µM [inhibitor, single point] | 
COc1ccc(-n2nnnc2C(c2ccccc2)N2CCN(C/C=C/c3ccccc3)CC2)cc1 (stereo not drawn) |  | inactive: -8.46%
Cc1ccc(C(=O)c2c(C)oc3c2C(=O)C(=O)c2ccccc2-3)cc1 | inconclusive: 21.2 µM [inhibitor, partial curve] | 
CC1=NN(c2ccc(Cl)cc2)C(=O)C1C(c1cccc(O)c1)c1c(C)[nH]n(-c2ccc(Cl)cc2)c1=O (stereo not drawn) | active: 5.32 µM | 
Cn1cc(/C=C2/SC(=O)N(c3ccccc3)C2=O)c2ccccc21 |  | inactive: -7.34%
COc1ccc(C(C[N+](=O)[O-])c2c(-c3ccccc3)cc3ccccn23)cc1OC (stereo not drawn) |  | inactive: -28.2%
C=CCn1c(SCC(=O)N2CCOCC2)nc2scc(-c3ccco3)c2c1=O |  | inconclusive: -30.2% [inhibitor]
COc1cc(/C=N\Nc2nc(-c3ccc(C)cc3)c(NC(C)=O)s2)ccc1O | inconclusive: 37.7 µM [inhibitor, partial curve] | 
CCCCN(CC)S(=O)(=O)c1ccc2c(c1)CCCN2C(C)=O | inconclusive: 21.2 µM [inhibitor, single point] | 
O=C(Oc1ccc([N+](=O)[O-])cc1)c1cncc(Br)c1 | inconclusive: 21.2 µM [inhibitor, partial curve] | 
O=C1OC(c2ccccc2)(N(Nc2ccccc2)c2ccccc2)c2ccccc21 (stereo not drawn) |  | inactive: 6.43%
Cc1ccc(C(=O)c2coc3cc([N+](=O)[O-])c(O)c([N+](=O)[O-])c23)cc1 | inconclusive: 33.6 µM [inhibitor, partial curve] | 
O=C(O)c1cc(-c2ccccc2Cl)n(-c2ccc(F)cc2)n1 | inconclusive: 16.8 µM [inhibitor, partial curve] | 
Cc1[nH]c2ccccc2c1C(c1ccncc1)N1CCCCC1 (stereo not drawn) | inconclusive: 29.9 µM [inhibitor, partial curve] | 
O=C(CCN1CCN(C(=O)c2ccccc2)CC1)c1ccc(Br)cc1 | inconclusive: 21.2 µM [inhibitor, partial curve] | 
COc1ccc(Nc2nc(-c3sc(C)nc3C)cs2)c(OC)c1 | inconclusive: 21.2 µM [inhibitor, partial curve] | 
CC1(C)CC(=O)C(Br)=C(O)C1 | inconclusive: 37.7 µM [inhibitor, single point] | 
CCOc1ccc(-c2c(C#N)c(N)nc3sc(C(=O)c4ccccc4)c(N)c23)cc1 | inconclusive: 26.7 µM [inhibitor, single point] | 
CCN(CC)C(=O)c1cccc2nc3ccccc3nc12 | inconclusive: 33.6 µM [inhibitor, single point] | 
COCCCN(C(=O)C(C)Oc1ccc(Br)cc1)c1c(N)n(Cc2ccccc2)c(=O)[nH]c1=O (stereo not drawn) |  | inactive: 2.97%
Nc1nnc(SCC(=O)Nc2sc3c(c2C(=O)c2ccccc2)CCCC3)s1 |  | inconclusive: -31% [inhibitor]
